Measured values taken from article PMC4041463.
No constants are given. Whether binding was seen depends on the method and setting. In cells and extracts the contact can be indirect. Some entries that bind do so weakly or less than the wild type. Blank lines part the entries; values can stand above or below the molecule they belong to.

The chains behind the UniProt entries cited, without tags or fusion partners.
UniProt Q14980: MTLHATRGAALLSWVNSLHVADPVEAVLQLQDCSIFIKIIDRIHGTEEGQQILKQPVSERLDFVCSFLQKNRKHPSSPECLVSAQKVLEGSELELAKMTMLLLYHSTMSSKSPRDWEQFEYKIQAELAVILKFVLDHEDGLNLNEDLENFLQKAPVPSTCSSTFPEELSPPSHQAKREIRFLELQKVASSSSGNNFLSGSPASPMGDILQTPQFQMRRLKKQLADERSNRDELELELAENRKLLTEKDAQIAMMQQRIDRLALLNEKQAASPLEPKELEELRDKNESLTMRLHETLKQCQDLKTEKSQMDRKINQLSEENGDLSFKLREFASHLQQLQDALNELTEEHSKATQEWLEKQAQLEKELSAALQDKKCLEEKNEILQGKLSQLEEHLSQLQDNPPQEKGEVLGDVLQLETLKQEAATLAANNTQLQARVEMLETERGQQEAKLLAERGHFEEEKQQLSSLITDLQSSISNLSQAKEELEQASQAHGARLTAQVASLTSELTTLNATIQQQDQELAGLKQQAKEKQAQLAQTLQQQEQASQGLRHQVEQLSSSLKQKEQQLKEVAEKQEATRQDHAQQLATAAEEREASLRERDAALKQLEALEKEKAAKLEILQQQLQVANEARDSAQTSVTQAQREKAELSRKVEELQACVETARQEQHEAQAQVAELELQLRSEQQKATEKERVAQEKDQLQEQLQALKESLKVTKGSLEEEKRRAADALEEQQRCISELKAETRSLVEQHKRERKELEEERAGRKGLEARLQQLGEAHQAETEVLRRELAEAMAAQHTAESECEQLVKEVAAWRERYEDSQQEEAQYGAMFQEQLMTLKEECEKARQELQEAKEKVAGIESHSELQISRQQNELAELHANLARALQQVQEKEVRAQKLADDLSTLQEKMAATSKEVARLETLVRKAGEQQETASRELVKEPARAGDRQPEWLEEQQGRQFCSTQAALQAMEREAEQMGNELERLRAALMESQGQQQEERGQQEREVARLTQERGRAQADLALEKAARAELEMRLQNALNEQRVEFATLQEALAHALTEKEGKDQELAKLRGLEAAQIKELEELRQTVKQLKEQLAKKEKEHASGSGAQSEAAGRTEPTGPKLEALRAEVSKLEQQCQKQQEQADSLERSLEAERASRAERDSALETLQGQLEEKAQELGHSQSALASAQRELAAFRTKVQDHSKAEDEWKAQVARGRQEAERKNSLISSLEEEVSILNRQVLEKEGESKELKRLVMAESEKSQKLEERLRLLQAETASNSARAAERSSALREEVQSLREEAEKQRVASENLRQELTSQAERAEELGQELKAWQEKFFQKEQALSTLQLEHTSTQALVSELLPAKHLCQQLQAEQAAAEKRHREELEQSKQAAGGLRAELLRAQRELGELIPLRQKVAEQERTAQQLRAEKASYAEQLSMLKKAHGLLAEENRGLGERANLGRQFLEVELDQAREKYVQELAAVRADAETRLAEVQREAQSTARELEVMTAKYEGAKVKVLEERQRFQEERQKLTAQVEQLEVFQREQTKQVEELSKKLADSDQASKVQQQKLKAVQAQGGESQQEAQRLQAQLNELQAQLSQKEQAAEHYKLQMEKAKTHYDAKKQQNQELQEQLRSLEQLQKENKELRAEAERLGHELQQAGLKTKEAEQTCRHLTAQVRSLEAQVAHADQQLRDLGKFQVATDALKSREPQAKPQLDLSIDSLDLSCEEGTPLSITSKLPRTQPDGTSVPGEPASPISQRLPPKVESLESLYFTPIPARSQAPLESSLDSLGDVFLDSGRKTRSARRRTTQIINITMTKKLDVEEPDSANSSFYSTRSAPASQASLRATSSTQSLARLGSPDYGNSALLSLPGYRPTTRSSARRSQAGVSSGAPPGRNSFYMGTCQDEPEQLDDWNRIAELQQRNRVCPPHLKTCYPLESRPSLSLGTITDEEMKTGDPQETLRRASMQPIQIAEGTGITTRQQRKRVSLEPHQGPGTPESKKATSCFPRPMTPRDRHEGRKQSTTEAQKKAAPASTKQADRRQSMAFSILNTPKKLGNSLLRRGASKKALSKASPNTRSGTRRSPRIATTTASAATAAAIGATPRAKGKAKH
UniProt O60264: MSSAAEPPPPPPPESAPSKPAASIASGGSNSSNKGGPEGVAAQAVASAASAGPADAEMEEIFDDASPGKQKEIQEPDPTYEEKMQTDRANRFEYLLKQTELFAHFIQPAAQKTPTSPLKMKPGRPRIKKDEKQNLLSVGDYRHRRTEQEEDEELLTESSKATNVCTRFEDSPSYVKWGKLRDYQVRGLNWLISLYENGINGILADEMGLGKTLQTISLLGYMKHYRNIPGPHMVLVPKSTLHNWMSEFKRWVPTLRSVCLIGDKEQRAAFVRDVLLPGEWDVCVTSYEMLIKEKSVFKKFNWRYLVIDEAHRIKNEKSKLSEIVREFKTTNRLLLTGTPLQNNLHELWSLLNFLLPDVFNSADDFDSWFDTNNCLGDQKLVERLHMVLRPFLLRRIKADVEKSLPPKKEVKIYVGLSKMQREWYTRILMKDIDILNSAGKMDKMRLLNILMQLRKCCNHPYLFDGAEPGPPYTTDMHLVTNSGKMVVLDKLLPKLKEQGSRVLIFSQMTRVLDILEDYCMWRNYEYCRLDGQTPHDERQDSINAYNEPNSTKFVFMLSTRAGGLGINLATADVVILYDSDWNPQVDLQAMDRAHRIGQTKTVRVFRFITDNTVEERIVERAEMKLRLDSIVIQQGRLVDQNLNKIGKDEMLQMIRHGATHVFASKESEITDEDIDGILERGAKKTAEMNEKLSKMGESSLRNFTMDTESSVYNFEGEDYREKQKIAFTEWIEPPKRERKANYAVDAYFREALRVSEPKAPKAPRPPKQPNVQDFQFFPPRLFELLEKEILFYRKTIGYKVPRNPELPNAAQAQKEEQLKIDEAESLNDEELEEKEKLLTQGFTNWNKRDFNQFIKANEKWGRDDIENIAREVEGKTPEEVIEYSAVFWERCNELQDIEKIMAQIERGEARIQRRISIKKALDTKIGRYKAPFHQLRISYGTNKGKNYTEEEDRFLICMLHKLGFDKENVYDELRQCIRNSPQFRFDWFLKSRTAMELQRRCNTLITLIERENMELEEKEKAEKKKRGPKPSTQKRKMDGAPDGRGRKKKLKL
UniProt P51532: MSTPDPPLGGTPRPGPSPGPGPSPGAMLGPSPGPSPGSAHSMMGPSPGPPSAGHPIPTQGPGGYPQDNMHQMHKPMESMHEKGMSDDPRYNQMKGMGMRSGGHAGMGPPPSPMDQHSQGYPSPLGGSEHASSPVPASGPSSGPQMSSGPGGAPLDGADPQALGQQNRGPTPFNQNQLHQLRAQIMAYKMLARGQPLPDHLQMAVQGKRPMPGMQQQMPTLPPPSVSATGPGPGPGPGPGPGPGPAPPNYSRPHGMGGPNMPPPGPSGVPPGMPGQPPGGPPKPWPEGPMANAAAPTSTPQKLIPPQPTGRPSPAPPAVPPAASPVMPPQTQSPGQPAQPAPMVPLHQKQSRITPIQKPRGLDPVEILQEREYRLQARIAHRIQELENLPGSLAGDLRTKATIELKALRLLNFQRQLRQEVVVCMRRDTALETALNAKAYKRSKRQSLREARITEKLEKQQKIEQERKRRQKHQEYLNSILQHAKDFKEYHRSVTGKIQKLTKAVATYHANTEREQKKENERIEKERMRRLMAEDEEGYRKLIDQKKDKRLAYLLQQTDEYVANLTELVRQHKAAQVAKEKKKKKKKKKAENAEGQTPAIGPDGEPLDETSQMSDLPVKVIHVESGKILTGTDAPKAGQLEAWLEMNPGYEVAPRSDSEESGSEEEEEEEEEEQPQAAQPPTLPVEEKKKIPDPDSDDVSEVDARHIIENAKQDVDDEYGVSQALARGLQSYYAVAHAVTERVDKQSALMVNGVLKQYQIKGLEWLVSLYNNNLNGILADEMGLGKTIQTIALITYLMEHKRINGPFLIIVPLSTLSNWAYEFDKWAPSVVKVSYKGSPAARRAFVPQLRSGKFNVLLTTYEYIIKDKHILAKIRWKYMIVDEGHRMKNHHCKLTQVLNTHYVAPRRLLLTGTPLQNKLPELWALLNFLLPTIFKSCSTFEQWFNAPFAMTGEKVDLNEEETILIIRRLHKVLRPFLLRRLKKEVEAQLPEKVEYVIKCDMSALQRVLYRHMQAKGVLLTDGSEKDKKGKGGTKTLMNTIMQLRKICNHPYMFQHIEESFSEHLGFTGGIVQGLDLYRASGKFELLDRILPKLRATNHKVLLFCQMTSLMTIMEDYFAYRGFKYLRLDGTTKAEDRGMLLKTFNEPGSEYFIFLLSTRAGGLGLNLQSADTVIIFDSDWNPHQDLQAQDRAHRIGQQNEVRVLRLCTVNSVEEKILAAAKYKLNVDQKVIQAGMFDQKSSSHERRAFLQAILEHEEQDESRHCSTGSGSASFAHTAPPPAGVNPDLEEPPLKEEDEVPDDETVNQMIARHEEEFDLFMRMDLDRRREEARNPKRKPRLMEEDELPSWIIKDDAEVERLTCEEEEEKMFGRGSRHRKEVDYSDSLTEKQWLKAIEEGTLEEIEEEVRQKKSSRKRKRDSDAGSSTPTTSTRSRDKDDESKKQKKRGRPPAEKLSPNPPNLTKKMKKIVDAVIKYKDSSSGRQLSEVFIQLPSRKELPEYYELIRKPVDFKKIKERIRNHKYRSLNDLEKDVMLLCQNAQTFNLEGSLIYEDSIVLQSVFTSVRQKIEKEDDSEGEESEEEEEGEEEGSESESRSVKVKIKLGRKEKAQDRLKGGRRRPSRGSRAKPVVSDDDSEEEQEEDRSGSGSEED

Columns and labels:
[1] = molecular target: nuclear mitotic apparatus protein (NuMA) (human (endogenous in HMT-3522 S1, T4-2 and U2OS)) (UniProt Q14980); assay: FRET or BRET; fluorescence lifetime imaging of fixed U2OS cells, nonirradiated or irradiated (10 Gy); SNF2h antibodies with Alexa Fluor 488 (donor), NuMA antibodies with Alexa Fluor 555 (acceptor)
[2] = molecular target: nuclear mitotic apparatus protein (NuMA) (human (endogenous in HMT-3522 S1, T4-2 and U2OS)) (UniProt Q14980); assay: co-IP; nuclear extracts (1 mg) of non-neoplastic HMT-3522 S1 and malignant T4-2 cells incubated with NuMA or SNF2h antibodies overnight at 4°C, Universal Magnetic Co-IP kit, western blot; T4-2 cells mock irradiated or exposed to 3 Gy and left 30 min (SNF2h in the NuMA IP increased by 2-fold after irradiation)
[3] = molecular target: ISWI ATPase SNF2h/SMARCA5 (human (endogenous in HMT-3522 S1, T4-2 and U2OS)) (UniProt O60264); assay: as above

- binding [1]: binds
- binding [2]: binds
Molecule: ISWI ATPase SNF2h/SMARCA5 (from UniProt O60264 1-1052)

- binding [3]: binds
Molecule: nuclear mitotic apparatus protein (NuMA) (from UniProt Q14980 1-2115)

- binding [2]: no binding
Molecule: SWI/SNF family BRG1 ATPase (from UniProt P51532 1-1647)

- binding [2]: binds
B1: Williams Syndrome Transcription Factor (WSTF) (protein, UniProt Q9UIG0 1-1483)
chain: MAPLLGRKPFPLVKPLPGEEPLFTIPHTQEAFRTREEYEARLERYSERIWTCKSTGSSQLTHKEAWEEEQEVAELLKEEFPAWYEKLVLEMVHHNTASLEKLVDTAWLEIMTKYAVGEECDFEVGKEKMLKVKIVKIHPLEKVDEEATEKKSDGACDSPSSDKENSSQIAQDHQKKETVVKEDEGRRESINDRARRSPRKLPTSLKKGERKWAPPKFLPHKYDVKLQNEDKIISNVPADSLIRTERPPNKEIVRYFIRHNALRAGTGENAPWVVEDELVKKYSLPSKFSDFLLDPYKYMTLNPSTKRKNTGSPDRKPSKKSKTDNSSLSSPLNPKLWCHVHLKKSLSGSPLKVKNSKNSKSPEEHLEEMMKMMSPNKLHTNFHIPKKGPPAKKPGKHSDKPLKAKGRSKGILNGQKSTGNSKSPKKGLKTPKTKMKQMTLLDMAKGTQKMTRAPRNSGGTPRTSSKPHKHLPPAALHLIAYYKENKDREDKRSALSCVISKTARLLSSEDRARLPEELRSLVQKRYELLEHKKRWASMSEEQRKEYLKKKREELKKKLKEKAKERREKEMLERLEKQKRYEDQELTGKNLPAFRLVDTPEGLPNTLFGDVAMVVEFLSCYSGLLLPDAQYPITAVSLMEALSADKGGFLYLNRVLVILLQTLLQDEIAEDYGELGMKLSEIPLTLHSVSELVRLCLRRSDVQEESEGSDTDDNKDSAAFEDNEVQDEFLEKLETSEFFELTSEEKLQILTALCHRILMTYSVQDHMETRQQMSAELWKERLAVLKEENDKKRAEKQKRKEMEAKNKENGKVENGLGKTDRKKEIVKFEPQVDTEAEDMISAVKSRRLLAIQAKKEREIQEREMKVKLERQAEEERIRKHKAAAEKAFQEGIAKAKLVMRRTPIGTDRNHNRYWLFSDEVPGLFIEKGWVHDSIDYRFNHHCKDHTVSGDEDYCPRSKKANLGKNASMNTQHGTATEVAVETTTPKQGQNLWFLCDSQKELDELLNCLHPQGIRESQLKERLEKRYQDIIHSIHLARKPNLGLKSCDGNQELLNFLRSDLIEVATRLQKGGLGYVEETSEFEARVISLEKLKDFGECVIALQASVIKKFLQGFMAPKQKRRKLQSEDSAKTEEVDEEKKMVEEAKVASALEKWKTAIREAQTFSRMHVLLGMLDACIKWDMSAENARCKVCRKKGEDDKLILCDECNKAFHLFCLRPALYEVPDGEWQCPACQPATARRNSRGRNYTEESASEDSEDDESDEEEEEEEEEEEEEDYEVAGLRLRPRKTIRGKHSVIPPAARSGRRPGKKPHSTRRSQPKAPPVDDAEVDELVLQTKRSSRRQSLELQKCEEILHKIVKYRFSWPFREPVTRDEAEDYYDVITHPMDFQTVQNKCSCGSYRSVQEFLTDMKQVFTNAEVYNCRGSHVLSCMVKTEQCLVALLHKHLPGHPYVRRKRKKFPDRLAEDEGDSEPEAVGQSRGRRQKK
